Binding data for three substances are collected here from publication PMC9260212.

Sequences of proteins named here, by UniProt entry; tags and fusion partners are left off. A change or cut given only in a name is not applied to a line headed by its entry.
UniProt P38532: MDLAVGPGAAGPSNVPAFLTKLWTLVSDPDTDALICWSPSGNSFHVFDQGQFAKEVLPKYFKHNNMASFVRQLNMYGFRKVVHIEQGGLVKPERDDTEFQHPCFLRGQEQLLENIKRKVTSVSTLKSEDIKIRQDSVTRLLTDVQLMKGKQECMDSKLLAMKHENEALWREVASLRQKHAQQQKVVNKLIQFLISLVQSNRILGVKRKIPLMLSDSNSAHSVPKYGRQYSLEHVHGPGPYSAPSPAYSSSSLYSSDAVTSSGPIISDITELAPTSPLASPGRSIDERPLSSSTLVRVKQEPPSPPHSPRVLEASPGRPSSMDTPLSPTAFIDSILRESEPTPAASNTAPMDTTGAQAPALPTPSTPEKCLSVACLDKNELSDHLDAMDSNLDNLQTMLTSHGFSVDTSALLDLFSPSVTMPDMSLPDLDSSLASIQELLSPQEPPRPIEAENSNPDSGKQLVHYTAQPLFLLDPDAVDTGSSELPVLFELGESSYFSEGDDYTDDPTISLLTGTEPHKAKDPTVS
UniProt Q00613: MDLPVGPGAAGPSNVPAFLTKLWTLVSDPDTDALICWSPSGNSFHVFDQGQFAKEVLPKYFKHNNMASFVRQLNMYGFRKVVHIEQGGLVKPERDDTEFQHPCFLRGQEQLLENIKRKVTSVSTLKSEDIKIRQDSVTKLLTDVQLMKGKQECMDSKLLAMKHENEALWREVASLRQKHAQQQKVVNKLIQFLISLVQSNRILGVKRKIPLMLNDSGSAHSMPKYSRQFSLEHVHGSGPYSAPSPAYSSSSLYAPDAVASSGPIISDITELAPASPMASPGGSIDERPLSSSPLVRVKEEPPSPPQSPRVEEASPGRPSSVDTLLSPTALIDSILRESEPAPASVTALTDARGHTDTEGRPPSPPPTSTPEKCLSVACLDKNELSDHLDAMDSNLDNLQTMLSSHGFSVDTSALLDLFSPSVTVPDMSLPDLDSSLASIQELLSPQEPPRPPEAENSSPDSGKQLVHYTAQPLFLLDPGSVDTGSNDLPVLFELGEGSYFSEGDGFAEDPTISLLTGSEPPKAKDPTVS
UniProt Q8K1M6: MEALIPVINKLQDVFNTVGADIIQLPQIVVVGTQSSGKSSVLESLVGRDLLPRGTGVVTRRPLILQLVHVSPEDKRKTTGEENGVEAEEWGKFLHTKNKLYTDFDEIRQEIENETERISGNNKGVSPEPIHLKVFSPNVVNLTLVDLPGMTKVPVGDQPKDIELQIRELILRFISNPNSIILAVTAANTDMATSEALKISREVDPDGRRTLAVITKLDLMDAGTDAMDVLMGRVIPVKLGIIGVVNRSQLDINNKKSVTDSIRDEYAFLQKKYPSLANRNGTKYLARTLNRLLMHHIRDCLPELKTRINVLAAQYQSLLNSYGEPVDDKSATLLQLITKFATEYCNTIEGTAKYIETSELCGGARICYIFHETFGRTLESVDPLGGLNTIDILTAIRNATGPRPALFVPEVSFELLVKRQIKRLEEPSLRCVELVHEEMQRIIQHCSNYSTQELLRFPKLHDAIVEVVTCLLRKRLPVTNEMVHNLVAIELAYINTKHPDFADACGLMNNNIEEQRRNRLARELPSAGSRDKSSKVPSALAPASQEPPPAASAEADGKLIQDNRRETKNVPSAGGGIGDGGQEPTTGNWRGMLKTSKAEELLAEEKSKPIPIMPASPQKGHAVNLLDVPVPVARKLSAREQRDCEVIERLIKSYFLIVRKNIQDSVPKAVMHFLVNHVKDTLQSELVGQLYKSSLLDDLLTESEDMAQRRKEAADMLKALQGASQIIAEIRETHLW
UniProt O00429: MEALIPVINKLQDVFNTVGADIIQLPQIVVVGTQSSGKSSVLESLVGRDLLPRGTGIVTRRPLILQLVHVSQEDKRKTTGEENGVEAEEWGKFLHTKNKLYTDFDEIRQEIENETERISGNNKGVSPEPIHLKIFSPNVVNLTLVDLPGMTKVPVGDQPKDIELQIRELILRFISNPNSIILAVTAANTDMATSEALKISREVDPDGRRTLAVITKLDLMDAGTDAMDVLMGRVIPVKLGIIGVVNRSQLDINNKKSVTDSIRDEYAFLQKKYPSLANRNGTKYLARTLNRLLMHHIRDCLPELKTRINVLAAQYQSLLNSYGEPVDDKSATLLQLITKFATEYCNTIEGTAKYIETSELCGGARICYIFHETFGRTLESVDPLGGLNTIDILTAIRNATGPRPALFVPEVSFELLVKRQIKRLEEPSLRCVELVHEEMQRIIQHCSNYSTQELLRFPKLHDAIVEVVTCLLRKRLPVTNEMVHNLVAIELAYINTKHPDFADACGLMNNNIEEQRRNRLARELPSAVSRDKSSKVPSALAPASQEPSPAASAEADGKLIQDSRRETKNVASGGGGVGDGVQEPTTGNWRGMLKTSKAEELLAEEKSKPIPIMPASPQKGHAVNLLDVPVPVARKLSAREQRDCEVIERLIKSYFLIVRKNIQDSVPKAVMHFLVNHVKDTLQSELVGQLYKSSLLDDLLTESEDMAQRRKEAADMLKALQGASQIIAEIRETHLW

The target of assay [1] is heat shock transcription factor 1 (HSF1), endogenous in HdhQ7/HdhQ111 striatal cells (mouse (endogenous in HdhQ7/HdhQ111 striatal cells)) (UniProt P38532). Description: co-IP; total cell lysates in HEPES buffer (20 mM HEPES pH 7.2, 50 mM NaCl, 0.5% Triton X-100); 1 mg protein with anti-HSF1 antibody or IgG overnight at 4°C, protein A/G beads 1 h; immunoblot; HdhQ7/HdhQ111 cells, patient and control fibroblasts; in one panel HdhQ111 cells treated with TAT, DH1 or DH2 (1 μM, 3 days). On the technique in general: Immunoblotting shows a protein as a band on a membrane.

The target in a further assay is recombinant GST-HSF1 (UniProt Q00613). The assay is described as follows: pull-down; purified His-Drp1 and recombinant GST-HSF1 (500 ng each) mixed in HEPES buffer 1 h at RT; HSF1 antibody overnight at 4°C, then protein A/G beads 1 h; WB (called GST pulldown in the results); both purified.
Assay [2] concerns the target heat shock transcription factor 1 (HSF1), endogenous in human fibroblasts (human (endogenous in fibroblasts)) (UniProt Q00613). The assay is described as follows: co-IP; total cell lysates in HEPES buffer (20 mM HEPES pH 7.2, 50 mM NaCl, 0.5% Triton X-100); 1 mg protein with anti-HSF1 antibody or IgG overnight at 4°C, protein A/G beads 1 h; immunoblot; HdhQ7/HdhQ111 cells, patient and control fibroblasts; in one panel HdhQ111 cells treated with TAT, DH1 or DH2 (1 μM, 3 days).

Results are given in words; binding and its absence hold for the method and conditions named. For part of these data: In cells and extracts the contact can be indirect. Some entries that bind do so weakly or less than the wild type.

“dynamin-related protein 1 (Drp1), endogenous in HdhQ7/HdhQ111 striatal cells (from UniProt Q8K1M6 1-736)”: the binding entry in assay [1] is listed as “binds”.
Regarding “recombinant His-Drp1 (from UniProt O00429 1-736)”, the binding entry in the assay with recombinant GST-HSF1 is “binds”.
For the substance “dynamin-related protein 1 (Drp1), endogenous in human fibroblasts (from UniProt O00429-1 1-736)”, in assay [2], the binding entry is reported as “binds”.
